Measurements reported in PubChem BioAssay AID1259307 (Sanger Institute, 2017).

Aim: 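Screen of kinase gene silencing for colorectal cancer cell killing and drug cooperation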 (primary screen)
Cells: SW620 colorectal cancer cells
Reagents: siRNA pool against human genes
Challenge: anchor drugs BYL719 at 1 µM, cetuximab at 5 µg/ml or trametinib at 10 nM, each beside a DMSO vehicle arm
Measurement: 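Per-well viability versus non-targeting control pool, replicate-averaged, robust z-score from controls; synergy scores for BYL719 1 µM, cetuximab 5 µg/ml, trametinib 10 nM against DMSO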
Direction: viability robust z-score, no drug: higher = more viable cells
Call rule: 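a knock-down counts as lethal alone if its drug-free robust viability z-score is lower than -3, regardless of synergy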
Meaning of the calls: active = essential (lethal alone); inactive = no change alone
This is a random part of 794 reagents. 15 of all reagents (1.9%) were called active. 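Calls reflect lethality without any drug; synergy scores did not enter the calls.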 Not all columns of the deposit are shown. Not given: the amount of reagent, the time to read-out.

What is on record for HUS1 (GeneID 3364)?
viability robust z-score, no drug: 0.201; Call: inactive

What did the screen give for CDC7 (GeneID 8317)?
viability robust z-score, no drug: 0.467; Call: inactive

With BCOR (GeneID 54880), what was measured?
viability robust z-score, no drug: -0.661; Call: inactive

What did the screen give for LIMK2 (GeneID 3985)?
viability robust z-score, no drug: -0.84; Call: inactive

How did the screen score MAGI3 (GeneID 260425)?
viability robust z-score, no drug: 0.736; Call: inactive

For TRIB3 (GeneID 57761), what was measured?
viability robust z-score, no drug: -0.331; Call: inactive

With CHKB (GeneID 1120), how do the results read?
viability robust z-score, no drug: 0.736; Call: inactive

What is on record for PKMYT1 (GeneID 9088)?
viability robust z-score, no drug: -0.259; Call: inactive

For EPHA3 (GeneID 2042), what was measured?
viability robust z-score, no drug: 0.736; Call: inactive

With WHR1 (GeneID 8859), how do the results read?
viability robust z-score, no drug: 0.736; Call: inactive

With TYRO3 (GeneID 7301), what was measured?
viability robust z-score, no drug: 0.0133; Call: inactive

What did the screen give for HIPK2 (GeneID 28996)?
viability robust z-score, no drug: 0.736; Call: inactive

What is on record for WNK4 (GeneID 65266)?
viability robust z-score, no drug: -1.18; Call: inactive

What is on record for PRKAR1B (GeneID 5575)?
viability robust z-score, no drug: -0.496; Call: inactive

For ASPM (GeneID 259266), how do the results read?
viability robust z-score, no drug: -0.222; Call: inactive

For MPP3 (GeneID 4356), how do the results read?
viability robust z-score, no drug: 0.529; Call: inactive

Which result is listed for NME4 (GeneID 4833)?
viability robust z-score, no drug: 0.324; Call: inactive

For GTF2H1 (GeneID 2965), what does the deposit list?
viability robust z-score, no drug: -0.76; Call: inactive

How did the screen score CDC42BPG (GeneID 55561)?
viability robust z-score, no drug: 0.736; Call: inactive

With MAPK1 (GeneID 5594), what does the deposit list?
viability robust z-score, no drug: -1.54; Call: inactive

For MARK1 (GeneID 4139), what was measured?
viability robust z-score, no drug: 0.736; Call: inactive

How did the screen score MKNK2 (GeneID 2872)?
viability robust z-score, no drug: -1.33; Call: inactive

With HIPK1 (GeneID 204851), what does the deposit list?
viability robust z-score, no drug: 0.736; Call: inactive

What did the screen give for EPHA4 (GeneID 2043)?
viability robust z-score, no drug: 0.736; Call: inactive

What did the screen give for PLK2 (GeneID 10769)?
viability robust z-score, no drug: -1.93; Call: inactive

How did the screen score PHKG1 (GeneID 5260)?
viability robust z-score, no drug: -1.85; Call: inactive

How did the screen score ITPKA (GeneID 3706)?
viability robust z-score, no drug: 0.736; Call: inactive

For CAMKV (GeneID 79012), what does the deposit list?
viability robust z-score, no drug: 0.736; Call: inactive

Individual results from the entries so far:
For “viability robust z-score, no drug”, PLK2 (GeneID 10769) shows -1.93
Under “viability robust z-score, no drug”, HIPK1 (GeneID 204851) has 0.736
